In patent publication US20130209433A1, “MODULATION OF AMINO ACID METABOLISM IN THE HYPOTHALAMUS” (Albert Einstein College of Medicine of Yeshiva University, priority 2005, published 2013):
At least one compound was matched to its structure with a doubt left.

Test system: Sprague Dawley rats
Test: ICV (third cerebral ventricle) infusion combined with systemic pancreatic-insulin clamp
Assay type: in vivo, rat
Description: To test this hypothesis we asked whether a primary increase in hypothalamic proline is per se sufficient to inhibit glucose production, and whether this effect requires metabolism of lactate to pyruvate. Experiments were designed to examine the effect of central administration of proline on whole body insulin action. In order to selectively increase the central availability of proline, we infused this amino acid via a chronic cannula implanted in the third cerebral ventricle (ICV) of conscious rats.
Proline (PRO, 3 mM solution at 5 μl/h) or vehicle (CON) was infused ICV for 6 hr in chronically catheterized Sprague Dawley rats. Insulin action was assessed by a combination of ICV infusions with systemic pancreatic-insulin clamp studies in order to control for the circulating levels of glucoregulatory hormones.
We next examined whether the effect of central proline on glucose production requires the inter-conversion between lactate and pyruvate catalyzed by LDH. In light of the ‘astrocyte-neuron lactate shuttle hypothesis’ (Pellerin and Magistretti, 2004), we proposed that central administration of proline leads to increased glutamate synthesis results in the increased formation of lactate (increased glycolysis) in astro-glia (Pellerin and Magistretti, 2004). Based on our previous work, the increased availability of lactate would in turn be expected to induce robust changes in liver glucose fluxes. Consistent with this hypothesis, impeding the conversion of glucose to lactate in astrocytes or of lactate to pyruvate in neurons within the hypothalamus should inhibit the potent metabolic effects of central proline on liver glucose fluxes. Oxamate (OXA) is a competitive inhibitor of LDH (Brooks et al., 1999). Thus, to test this hypothesis we next co-infused ICV oxamate (50 mM; 3 μl bolus; 5 μl/h) with proline in order to examine whether lactate metabolism is required for the effects of proline and presumably of other gluconeogenic amino acids on glucose production. […]

NC(=O)C(=O)O [oxamate, Oxamate, reference compound]
effect per se on rate of glucose infusion and liver glucose fluxes (ICV infusion alone): no effects
effect on the effects of ICV KIC on rate of glucose infusion and liver glucose fluxes (co-infused ICV with KIC, oxamate 50 mM, 3 μl bolus, 5 μl/h, glibenclamide 100 μM): failed to modify
effect on the effects of ICV proline on rate of glucose infusion and liver glucose fluxes (co-infused ICV with proline, oxamate 50 mM, 3 μl bolus, 5 μl/h): negated the effects of ICV proline
